This is one part of the list.
How the values were obtained:
Experiment in all cases: log2 fold change, soluble protein after heating vs DMSO (PISA); higher = thermal stabilisation; K562 lysate, 10 uM; active = over 0.2 and 3.5 SD of the protein, either way, in both replicates (recomputed)
ibrutinib = compound: C=CC(=O)N1CCC[C@@H](n2nc(-c3ccc(Oc4ccccc4)cc3)c3c(N)ncnc32)C1 [ibrutinib]
Summary of the method: (§1)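 Pellets of K562 cells were dounce-homogenised in PBS pH 7.4 with 1 mM MgCl2, and the crude extract was held at 1 mg/mL protein for a 30 min treatment with 10 μM compound. Aliquots were heated for 3 min over 48°C-58°C and pooled before NP-40 was added to 0.5% at 4°C. The supernatant from 21,000xg for 90 min was quantified by TMTpro 16plex LC-MS/MS with channel sums equalised. Values are reported from duplicates as log-two fold change in thermal stability relative to solvent controls.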

By UniProt entry, the sequences of proteins in these tests, tags left out. Where a name states a change or a piece, a line headed by the entry shows the natural chain unless it says otherwise.
UniProt P54132: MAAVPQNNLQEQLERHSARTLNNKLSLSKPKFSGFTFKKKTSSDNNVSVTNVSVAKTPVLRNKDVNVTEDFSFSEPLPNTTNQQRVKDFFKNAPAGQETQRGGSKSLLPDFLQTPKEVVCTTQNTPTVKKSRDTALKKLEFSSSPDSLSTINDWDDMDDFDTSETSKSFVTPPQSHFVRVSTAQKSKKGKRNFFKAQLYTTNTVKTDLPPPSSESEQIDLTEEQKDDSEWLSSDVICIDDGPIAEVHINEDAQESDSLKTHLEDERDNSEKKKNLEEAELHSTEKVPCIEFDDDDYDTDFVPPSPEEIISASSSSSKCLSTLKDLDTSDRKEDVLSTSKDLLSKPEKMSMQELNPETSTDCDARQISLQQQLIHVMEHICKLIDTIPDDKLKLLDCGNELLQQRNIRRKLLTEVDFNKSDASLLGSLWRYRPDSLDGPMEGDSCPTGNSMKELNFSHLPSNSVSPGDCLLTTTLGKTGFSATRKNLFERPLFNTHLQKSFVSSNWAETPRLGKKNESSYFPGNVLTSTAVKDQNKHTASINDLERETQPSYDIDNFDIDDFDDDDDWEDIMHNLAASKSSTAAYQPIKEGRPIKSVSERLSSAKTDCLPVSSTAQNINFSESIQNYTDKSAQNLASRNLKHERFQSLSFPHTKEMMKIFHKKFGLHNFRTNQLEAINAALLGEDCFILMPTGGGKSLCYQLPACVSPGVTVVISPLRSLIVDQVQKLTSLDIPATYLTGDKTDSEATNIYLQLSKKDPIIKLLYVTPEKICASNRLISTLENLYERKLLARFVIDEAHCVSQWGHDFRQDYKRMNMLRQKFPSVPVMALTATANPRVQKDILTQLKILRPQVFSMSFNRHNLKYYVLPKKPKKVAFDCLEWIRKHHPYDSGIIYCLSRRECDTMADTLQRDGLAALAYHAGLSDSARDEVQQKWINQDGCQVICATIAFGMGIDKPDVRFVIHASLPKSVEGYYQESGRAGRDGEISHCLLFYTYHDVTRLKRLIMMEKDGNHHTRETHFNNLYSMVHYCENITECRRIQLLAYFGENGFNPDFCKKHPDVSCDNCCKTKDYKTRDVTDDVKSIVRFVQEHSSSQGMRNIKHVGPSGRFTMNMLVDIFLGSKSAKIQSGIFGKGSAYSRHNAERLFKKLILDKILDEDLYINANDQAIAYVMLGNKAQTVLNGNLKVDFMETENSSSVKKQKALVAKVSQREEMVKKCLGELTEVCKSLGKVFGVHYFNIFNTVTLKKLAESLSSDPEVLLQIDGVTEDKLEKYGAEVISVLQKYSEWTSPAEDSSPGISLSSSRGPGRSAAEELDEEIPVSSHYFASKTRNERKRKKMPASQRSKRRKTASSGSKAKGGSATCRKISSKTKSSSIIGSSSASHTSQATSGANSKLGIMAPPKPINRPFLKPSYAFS
UniProt Q9BUT1: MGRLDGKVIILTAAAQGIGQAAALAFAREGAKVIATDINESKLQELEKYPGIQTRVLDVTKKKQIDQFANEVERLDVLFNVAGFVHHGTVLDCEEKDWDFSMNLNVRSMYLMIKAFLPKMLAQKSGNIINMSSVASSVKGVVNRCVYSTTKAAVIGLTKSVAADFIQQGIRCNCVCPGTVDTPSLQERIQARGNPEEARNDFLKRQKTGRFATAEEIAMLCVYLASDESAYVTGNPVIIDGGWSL
UniProt Q9UQB8: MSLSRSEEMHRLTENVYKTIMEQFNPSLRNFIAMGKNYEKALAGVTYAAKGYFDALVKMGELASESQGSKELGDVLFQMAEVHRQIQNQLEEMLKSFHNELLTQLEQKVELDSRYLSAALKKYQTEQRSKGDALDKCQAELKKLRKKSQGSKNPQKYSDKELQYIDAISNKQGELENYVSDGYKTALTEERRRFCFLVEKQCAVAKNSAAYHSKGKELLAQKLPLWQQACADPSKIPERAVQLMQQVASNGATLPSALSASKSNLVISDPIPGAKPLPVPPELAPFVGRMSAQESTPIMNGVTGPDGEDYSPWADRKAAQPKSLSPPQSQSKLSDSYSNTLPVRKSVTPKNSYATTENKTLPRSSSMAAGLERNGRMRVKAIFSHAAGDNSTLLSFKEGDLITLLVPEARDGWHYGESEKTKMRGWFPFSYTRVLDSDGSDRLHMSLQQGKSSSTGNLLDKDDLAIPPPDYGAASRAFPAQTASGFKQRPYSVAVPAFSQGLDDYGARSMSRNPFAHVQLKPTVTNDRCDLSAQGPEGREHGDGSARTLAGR
UniProt Q8TDN6: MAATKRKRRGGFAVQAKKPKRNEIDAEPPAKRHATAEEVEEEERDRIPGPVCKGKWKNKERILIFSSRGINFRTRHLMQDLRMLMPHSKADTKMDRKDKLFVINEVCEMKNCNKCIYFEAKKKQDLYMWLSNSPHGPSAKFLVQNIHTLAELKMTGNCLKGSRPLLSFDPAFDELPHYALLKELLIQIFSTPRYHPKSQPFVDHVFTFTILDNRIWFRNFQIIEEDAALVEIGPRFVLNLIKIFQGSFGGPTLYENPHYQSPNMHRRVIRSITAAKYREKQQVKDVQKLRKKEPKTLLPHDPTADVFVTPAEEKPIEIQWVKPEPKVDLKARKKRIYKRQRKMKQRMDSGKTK
UniProt Q86WA6: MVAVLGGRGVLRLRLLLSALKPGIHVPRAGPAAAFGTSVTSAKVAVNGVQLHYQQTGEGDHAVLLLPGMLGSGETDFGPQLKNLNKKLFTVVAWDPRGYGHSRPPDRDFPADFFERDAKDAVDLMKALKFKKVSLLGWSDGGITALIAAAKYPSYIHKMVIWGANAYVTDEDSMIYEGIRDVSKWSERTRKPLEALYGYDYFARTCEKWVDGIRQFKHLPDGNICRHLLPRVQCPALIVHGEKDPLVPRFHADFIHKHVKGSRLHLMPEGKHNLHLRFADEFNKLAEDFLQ
UniProt Q9HB09: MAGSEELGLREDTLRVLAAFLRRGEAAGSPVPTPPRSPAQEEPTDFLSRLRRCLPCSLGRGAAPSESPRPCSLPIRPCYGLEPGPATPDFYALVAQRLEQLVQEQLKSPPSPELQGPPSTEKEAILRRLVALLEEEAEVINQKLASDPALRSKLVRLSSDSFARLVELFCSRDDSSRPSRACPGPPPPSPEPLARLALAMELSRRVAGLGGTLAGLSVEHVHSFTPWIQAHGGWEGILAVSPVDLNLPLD
UniProt Q9UIG0: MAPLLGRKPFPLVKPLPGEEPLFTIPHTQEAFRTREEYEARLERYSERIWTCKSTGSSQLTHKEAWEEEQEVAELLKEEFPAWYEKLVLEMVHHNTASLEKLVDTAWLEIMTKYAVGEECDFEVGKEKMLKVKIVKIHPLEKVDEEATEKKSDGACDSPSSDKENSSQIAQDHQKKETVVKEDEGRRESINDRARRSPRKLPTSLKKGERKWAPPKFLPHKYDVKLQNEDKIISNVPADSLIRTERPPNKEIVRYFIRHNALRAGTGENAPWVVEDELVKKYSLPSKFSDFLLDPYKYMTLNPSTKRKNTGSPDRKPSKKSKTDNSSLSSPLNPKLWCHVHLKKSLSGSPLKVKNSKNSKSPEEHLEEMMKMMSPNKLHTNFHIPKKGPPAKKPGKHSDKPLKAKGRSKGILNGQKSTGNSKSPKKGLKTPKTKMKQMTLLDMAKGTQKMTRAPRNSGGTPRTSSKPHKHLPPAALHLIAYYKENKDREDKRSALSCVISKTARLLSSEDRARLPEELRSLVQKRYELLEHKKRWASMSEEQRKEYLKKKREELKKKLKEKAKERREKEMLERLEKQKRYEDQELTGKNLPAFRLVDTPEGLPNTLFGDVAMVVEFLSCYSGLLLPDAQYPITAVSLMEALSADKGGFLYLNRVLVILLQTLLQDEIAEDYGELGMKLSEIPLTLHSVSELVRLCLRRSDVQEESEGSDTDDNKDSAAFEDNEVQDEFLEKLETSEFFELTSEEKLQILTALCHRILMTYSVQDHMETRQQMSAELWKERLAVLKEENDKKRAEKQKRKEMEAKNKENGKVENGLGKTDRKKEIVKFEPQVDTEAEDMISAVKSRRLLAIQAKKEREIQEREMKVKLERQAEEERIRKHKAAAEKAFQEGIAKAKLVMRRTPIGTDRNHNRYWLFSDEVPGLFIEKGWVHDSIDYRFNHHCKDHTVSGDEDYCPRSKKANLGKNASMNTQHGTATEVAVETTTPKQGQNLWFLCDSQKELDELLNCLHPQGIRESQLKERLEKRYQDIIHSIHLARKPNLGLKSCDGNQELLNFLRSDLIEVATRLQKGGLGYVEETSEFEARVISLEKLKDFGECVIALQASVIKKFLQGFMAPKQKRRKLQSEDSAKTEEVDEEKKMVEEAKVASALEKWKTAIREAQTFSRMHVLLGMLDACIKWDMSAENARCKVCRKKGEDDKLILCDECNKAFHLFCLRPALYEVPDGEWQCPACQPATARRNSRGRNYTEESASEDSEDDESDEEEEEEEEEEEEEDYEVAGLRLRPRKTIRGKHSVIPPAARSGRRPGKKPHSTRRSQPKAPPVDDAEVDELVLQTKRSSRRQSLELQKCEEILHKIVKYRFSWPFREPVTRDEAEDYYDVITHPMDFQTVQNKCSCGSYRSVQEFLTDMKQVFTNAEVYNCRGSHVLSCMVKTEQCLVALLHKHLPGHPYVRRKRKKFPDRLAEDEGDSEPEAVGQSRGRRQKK
UniProt Q14457, whole entry, looked up: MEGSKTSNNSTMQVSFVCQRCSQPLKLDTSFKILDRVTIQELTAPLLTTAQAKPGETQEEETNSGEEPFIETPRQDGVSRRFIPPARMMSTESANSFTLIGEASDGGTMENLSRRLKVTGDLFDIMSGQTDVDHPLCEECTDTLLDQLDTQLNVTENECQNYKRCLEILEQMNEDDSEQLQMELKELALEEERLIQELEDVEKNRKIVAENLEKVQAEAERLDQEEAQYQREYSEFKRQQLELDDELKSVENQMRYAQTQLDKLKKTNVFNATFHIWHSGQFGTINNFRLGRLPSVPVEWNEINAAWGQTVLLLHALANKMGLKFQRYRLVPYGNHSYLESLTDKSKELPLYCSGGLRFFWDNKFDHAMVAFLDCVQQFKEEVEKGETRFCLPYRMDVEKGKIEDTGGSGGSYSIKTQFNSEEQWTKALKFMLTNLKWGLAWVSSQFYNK
UniProt Q99933: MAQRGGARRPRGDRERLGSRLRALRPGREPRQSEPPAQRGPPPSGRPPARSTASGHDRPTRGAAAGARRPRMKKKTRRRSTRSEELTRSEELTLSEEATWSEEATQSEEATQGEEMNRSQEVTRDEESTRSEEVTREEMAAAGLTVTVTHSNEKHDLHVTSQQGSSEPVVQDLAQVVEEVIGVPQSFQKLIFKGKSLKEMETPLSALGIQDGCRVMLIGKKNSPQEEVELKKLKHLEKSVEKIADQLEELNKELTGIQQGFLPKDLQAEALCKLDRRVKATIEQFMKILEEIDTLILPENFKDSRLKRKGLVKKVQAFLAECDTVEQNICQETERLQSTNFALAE
UniProt P46736, whole entry, looked up: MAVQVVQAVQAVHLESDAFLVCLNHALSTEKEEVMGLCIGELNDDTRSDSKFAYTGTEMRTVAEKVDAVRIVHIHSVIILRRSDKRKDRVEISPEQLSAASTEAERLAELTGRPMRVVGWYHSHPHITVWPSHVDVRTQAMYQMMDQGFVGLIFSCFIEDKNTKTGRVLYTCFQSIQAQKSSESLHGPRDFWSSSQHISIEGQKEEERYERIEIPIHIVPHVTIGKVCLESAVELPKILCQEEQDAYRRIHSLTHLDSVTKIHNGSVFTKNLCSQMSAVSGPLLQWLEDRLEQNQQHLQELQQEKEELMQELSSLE
UniProt O14867: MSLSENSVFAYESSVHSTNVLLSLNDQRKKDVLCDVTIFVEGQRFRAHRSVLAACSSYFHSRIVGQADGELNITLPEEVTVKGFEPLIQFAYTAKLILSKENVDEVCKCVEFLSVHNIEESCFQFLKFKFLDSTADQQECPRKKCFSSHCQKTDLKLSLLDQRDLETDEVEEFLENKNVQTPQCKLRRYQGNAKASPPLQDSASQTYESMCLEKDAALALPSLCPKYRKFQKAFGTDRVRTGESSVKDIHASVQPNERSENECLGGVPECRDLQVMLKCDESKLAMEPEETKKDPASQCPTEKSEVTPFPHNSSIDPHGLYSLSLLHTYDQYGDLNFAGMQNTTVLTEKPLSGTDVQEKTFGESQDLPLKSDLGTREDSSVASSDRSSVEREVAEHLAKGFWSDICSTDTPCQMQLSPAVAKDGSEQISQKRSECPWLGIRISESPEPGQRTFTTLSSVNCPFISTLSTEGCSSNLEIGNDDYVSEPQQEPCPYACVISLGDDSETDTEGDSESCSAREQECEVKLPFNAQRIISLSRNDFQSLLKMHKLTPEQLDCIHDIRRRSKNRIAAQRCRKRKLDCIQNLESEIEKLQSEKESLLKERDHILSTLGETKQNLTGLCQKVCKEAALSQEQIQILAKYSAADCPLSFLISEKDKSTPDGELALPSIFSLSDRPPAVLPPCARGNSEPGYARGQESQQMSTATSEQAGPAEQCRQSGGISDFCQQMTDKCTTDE
UniProt Q53S33: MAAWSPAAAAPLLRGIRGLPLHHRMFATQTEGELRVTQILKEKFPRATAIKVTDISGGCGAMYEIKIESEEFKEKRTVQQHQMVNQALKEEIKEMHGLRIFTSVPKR

[1] = compound: CC(=O)c1cnc2ccc(-c3cc(Cl)c(O)c(Cl)c3)nc2c1N[C@H]1CC[C@H](CN(C)C)CC1
Summary of the method: as §1

ralimetinib = compound: CC(C)(C)Cn1c(N)nc2ccc(-c3[nH]c(C(C)(C)C)nc3-c3ccc(F)cc3)nc21 [ralimetinib]
Summary of the method: as §1

[2] = compound: CC(C)(O)CC(=O)NCCn1ccc2ncnc(Nc3ccc(Oc4cccc(C(F)(F)F)c4)c(Cl)c3)c21
Summary of the method: as §1

[3] = compound: CC(C)C1=C2N=C(C=C(N2N=C1)NCC3=CC=CC=C3)NCCCCCCN
Summary of the method: as §1

[4] = compound: CC1=C(C(CC(=O)N1)C2=CC=C(C=C2)C(F)(F)F)C(=O)NC3=C(C=C4C(=C3)C=NN4)F
Summary of the method: as §1

[5] = compound: CC1=C(C2=C(C=C1)C(=O)C3=CC=CC=C3N2CCCN)C
Summary of the method: as §1

[6] = compound: CC1=C(C=C(C=C1)NC(=O)C2=CC(=CC=C2)C(C)(C)C#N)NC3=CC4=C(C=C3)N=CN(C4=O)C
Summary of the method: as §1

[7] = compound: CC1=C(C=C(C=C1)NC(=O)C2=CC(=CC=C2)N(C)C)NC(=O)C3=CC=C(C=C3)O
Summary of the method: as §1

[8] = compound: CC1=CC=C(C=C1)SC2=C3C=C(SC3=CN=C2)C(=O)N
Summary of the method: as §1

Measured: log2 fold change

BLM (UniProt P54132)
inactive: ibrutinib 0.128 | [1] 0.026 | ralimetinib -0.015 | [2] 0.031 | [3] -0.005 | [4] -0.019 | [5] 0.03 | [6] -0.058 | [7] 0.019 | [8] 0.036

BDH2 (UniProt Q9BUT1)
inactive: ibrutinib -0.001 | [1] 0.058 | ralimetinib 0.056 | [2] 0.031 | [3] 0.067 | [4] -0.039 | [5] -0.008 | [6] 0.043 | [7] -0.096 | [8] 0.055

BAIAP2 (UniProt Q9UQB8)
inactive: ibrutinib 0.031 | [1] 0.005 | ralimetinib -0.054 | [2] -0.004 | [3] -0.019 | [4] -0.032 | [5] 0.025 | [6] 0.035 | [7] -0.03 | [8] -0.009

BRIX1 (UniProt Q8TDN6)
inactive: ibrutinib -0.022 | [1] 0.006 | ralimetinib 0.013 | [2] 0.003 | [3] -0.02 | [4] 0.005 | [5] -0.047 | [6] -0.016 | [7] -0.015 | [8] 0.033

BMS1 (UniProt Q14692)
inactive: ibrutinib 0.095 | [1] 0.018 | ralimetinib 0.018 | [2] -0.041 | [3] -0.008 | [4] -0.011 | [5] 0.007 | [6] 0.049 | [7] 0.034 | [8] 0.032

BPHL (UniProt Q86WA6)
inactive: ibrutinib -0.073 | [1] -0.016 | ralimetinib 0.047 | [2] 0.06 | [3] -0.045 | [4] 0 | [5] -0.015 | [6] 0.025 | [7] -0.004 | [8] -0.002

BCAR1 isoform 6 (UniProt P56945)
inactive: ibrutinib 0.024 | [1] 0.02 | ralimetinib -0.009 | [2] 0 | [3] 0.01 | [4] 0.03 | [5] -0.056 | [6] -0.014 | [7] 0.006 | [8] -0.033

B4GALT3 (UniProt O60512)
inactive: ibrutinib 0.001 | [1] -0.169 | ralimetinib 0.043 | [2] -0.062 | [3] 0.019 | [4] 0.007 | [5] 0.028 | [6] -0.09 | [7] 0.043 | [8] 0.005

BAG3 (UniProt O95817)
inactive: ibrutinib 0.05 | [1] -0.02 | ralimetinib -0.049 | [2] 0 | [3] -0.026 | [4] -0.003 | [5] -0.042 | [6] -0.004 | [7] -0.037 | [8] -0.014

BST2 (UniProt Q10589)
inactive: ibrutinib 0.025 | [1] -0.011 | ralimetinib -0.003 | [2] -0.05 | [3] -0.059 | [4] -0.042 | [5] 0.027 | [6] -0.016 | [7] -0.021 | [8] -0.057

BCL2L12 (UniProt Q9HB09)
inactive: ibrutinib -0.26 | [1] -0.084 | ralimetinib 0.073 | [2] -0.024 | [3] 0.057 | [4] 0 | [5] -0.021 | [6] 0.028 | [7] -0.024 | [8] 0.099

BAZ1B (UniProt Q9UIG0)
inactive: ibrutinib 0.063 | [1] -0.043 | ralimetinib -0.054 | [2] 0.003 | [3] 0.058 | [4] 0.03 | [5] 0.036 | [6] -0.048 | [7] -0.012 | [8] -0.052

BTF3L4 (UniProt Q96K17)
inactive: ibrutinib -0.019 | [1] 0.027 | ralimetinib 0.04 | [2] -0.014 | [3] -0.041 | [4] -0.003 | [5] 0.014 | [6] -0.009 | [7] -0.023 | [8] 0.021

BECN1 (UniProt Q14457)
inactive: ibrutinib -0.014 | [1] 0.036 | ralimetinib 0.039 | [2] 0 | [3] -0.052 | [4] -0.005 | [5] -0.002 | [6] -0.017 | [7] -0.01 | [8] 0

BAG1 (UniProt Q99933)
inactive: ibrutinib -0.004 | [1] 0 | ralimetinib 0.012 | [2] -0.03 | [3] -0.019 | [4] -0.022 | [5] 0.049 | [6] 0.023 | [7] 0.005 | [8] -0.024

BRCC3 (UniProt P46736)
inactive: ibrutinib 0.009 | [1] 0.023 | ralimetinib -0.026 | [2] 0.03 | [3] -0.028 | [4] -0.048 | [5] -0.018 | [6] 0.049 | [7] -0.072 | [8] 0.018

BPGM (UniProt P07738)
inactive: ibrutinib 0.013 | [1] 0.093 | ralimetinib -0.01 | [2] -0.088 | [3] -0.016 | [4] -0.005 | [5] 0.011 | [6] 0.005 | [7] -0.009 | [8] 0.005

BACH1 (UniProt O14867)
inactive: ibrutinib -0.066 | [1] 0.016 | ralimetinib -0.003 | [2] -0.039 | [3] -0.007 | [4] 0.043 | [5] 0.028 | [6] 0.011 | [7] -0.013 | [8] -0.01

BOLA3 (UniProt Q53S33)
inactive: ibrutinib 0.044 | [1] -0.002 | ralimetinib -0.025 | [2] -0.007 | [3] 0.014 | [4] 0.02 | [5] -0.012 | [6] -0.055 | [7] -0.025 | [8] -0.013

BCL10 (UniProt O95999)
inactive: ibrutinib 0.01 | [1] -0.047 | ralimetinib 0 | [2] 0.039 | [3] 0.019 | [4] 0.002 | [5] 0.033 | [6] 0.003 | [7] 0.013 | [8] -0.018

Reprinted from above (2 entries):
BACH1 (UniProt O14867)
inactive: ibrutinib -0.066 | [1] 0.016 | ralimetinib -0.003 | [2] -0.039 | [3] -0.007 | [4] 0.043 | [5] 0.028 | [6] 0.011 | [7] -0.013 | [8] -0.01

BOLA3 (UniProt Q53S33)
inactive: ibrutinib 0.044 | [1] -0.002 | ralimetinib -0.025 | [2] -0.007 | [3] 0.014 | [4] 0.02 | [5] -0.012 | [6] -0.055 | [7] -0.025 | [8] -0.013

Following part

BCAT1 (UniProt P54687)
inactive: ibrutinib 0.019 | [1] 0.009 | ralimetinib -0.002 | [2] -0.02 | [3] -0.01 | [4] -0.017 | [5] 0.003 | [6] 0.001 | [7] -0.012 | [8] -0.028

BLOC1S5 (UniProt Q8TDH9)
inactive: ibrutinib 0.052 | [1] -0.008 | ralimetinib -0.02 | [2] -0.006 | [3] 0.014 | [4] 0.027 | [5] -0.032 | [6] 0.003 | [7] -0.01 | [8] -0.002

BLOC1S6 (UniProt Q9UL45)
inactive: ibrutinib 0.156 | [1] -0.07 | ralimetinib 0.015 | [2] 0.061 | [3] -0.029 | [4] 0.014 | [5] -0.033 | [6] -0.001 | [7] -0.017 | [8] 0.012

BCKDHA (UniProt P12694)
inactive: ibrutinib 0.007 | [1] 0.084 | ralimetinib 0.029 | [2] 0.032 | [3] 0.026 | [4] -0.021 | [5] -0.058 | [6] 0.023 | [7] 0.025 | [8] -0.001

BNIP2 (UniProt J3KN59)
inactive: ibrutinib 0.047 | [1] 0.008 | ralimetinib 0.046 | [2] -0.021 | [3] -0.002 | [4] 0.013 | [5] 0.034 | [6] -0.035 | [7] 0 | [8] 0.025

BORCS5 (UniProt Q969J3)
inactive: ibrutinib 0.088 | [1] -0.02 | ralimetinib -0.033 | [2] 0.012 | [3] 0.033 | [4] 0.153 | [5] -0.012 | [6] 0.021 | [7] 0.034 | [8] -0.001

BRCA1 isoform 7 (UniProt P38398)
inactive: ibrutinib 0.017 | [1] -0.019 | ralimetinib -0.014 | [2] -0.02 | [3] -0.022 | [4] 0.039 | [5] -0.018 | [6] 0.041 | [7] 0.01 | [8] -0.067

BRD4 (UniProt O60885)
inactive: ibrutinib -0.011 | [1] -0.017 | ralimetinib 0.023 | [2] -0.042 | [3] -0.016 | [4] -0.006 | [5] 0.001 | [6] 0.061 | [7] 0.006 | [8] -0.021

BCAS2 (UniProt O75934)
inactive: ibrutinib 0.091 | [1] 0.02 | ralimetinib 0.052 | [2] -0.026 | [3] 0.062 | [4] 0 | [5] -0.03 | [6] -0.01 | [7] -0.019 | [8] 0.009
